# Patent US8088927B2, “Fungicide N-cycloalkyl-benzyl-amide derivatives” (Bayer Cropscience AG, priority 2006, dated 2012)
# Some entries share one result that the patent states for a list of compounds.
# Tests used:
# [1] = test system: Sphaerotheca fuliginea; experiment: In vivo preventive test on Sphaerotheca fuliginea (cucurbit powdery mildew); conditions: dose of 500 ppm, preventive spray, gherkin plants, grading 21 days after contamination
# [2] = test system: Pyrenophora teres; experiment: In vivo preventive test on Pyrenophora teres (barley net blotch); conditions: dose of 500 ppm, preventive spray, barley plants, grading 12 days after contamination
# [3] = test system: Mycosphaerella graminicola; experiment: In vivo preventive test on Mycosphaerella graminicola (wheat leaf spot); conditions: dose of 500 ppm, preventive spray, wheat plants, grading 21 to 28 days after contamination
structure (smiles),measurement,setting,value
Cn1cc(C(=O)N(Cc2ccc(OC(F)(F)F)cc2)C2CC2)c(C(F)(F)F)c1 [Compound 144],good (at least 70%) or total protection,[1],at least 70%
same,good (at least 70%) or total protection,[2],at least 70%
same,good (at least 70%) or total protection,[3],at least 70%
Cc1cc(C(=O)N(Cc2ccc(Cl)cc2Cl)C2CC2)c(C)o1 [Compound 24],good (at least 70%) or total protection,[1],at least 70%
same,good (at least 70%) or total protection,[2],at least 70%
same,good (at least 70%) or total protection,[3],at least 70%
Cc1cc(C)c(CN(C(=O)c2cn(C)nc2C(F)F)C2CC2)c(C)c1 [Compound 302],good (at least 70%) or total protection,[1],at least 70%
same,good (at least 70%) or total protection,[2],at least 70%
Cc1nc(C(F)F)c(C(=O)N(C2CC2)C(C#N)c2ccc(Cl)cc2Cl)s1 (stereo not shown) [Compound 209],good (at least 70%) or total protection,[1],at least 70%
same,good (at least 70%) or total protection,[2],at least 70%
same,good (at least 70%) or total protection,[3],at least 70%
CCCCC(c1ccc(Cl)cc1Cl)N(C(=O)c1c(C)nn(C)c1F)C1CC1 (stereo not shown) [Compound 388],good (at least 70%) or total protection,[1],at least 70%
same,good (at least 70%) or total protection,[2],at least 70%
same,good (at least 70%) or total protection,[3],at least 70%
Cn1cc(C(=O)N(Cc2cccc(OC(F)(F)F)c2)C2CC2)c(C(F)(F)F)c1 [Compound 113],good (at least 70%) or total protection,[1],at least 70%
same,good (at least 70%) or total protection,[2],at least 70%
same,good (at least 70%) or total protection,[3],at least 70%
COc1nn(C)cc1C(=O)N(Cc1cc2c(cc1Cl)OCO2)C1CC1 [Compound 319],good (at least 70%) or total protection,[1],at least 70%
same,good (at least 70%) or total protection,[2],at least 70%
same,good (at least 70%) or total protection,[3],at least 70%
COc1nn(C)cc1C(=O)N(Cc1cccc(OC(F)(F)F)c1)C1CC1 [Compound 312],good (at least 70%) or total protection,[1],at least 70%
same,good (at least 70%) or total protection,[2],at least 70%
same,good (at least 70%) or total protection,[3],at least 70%
Cn1cc(C(=O)N(Cc2ccc(C(F)(F)F)cc2Cl)C2CC2)c(C(F)F)n1 [Compound 240],good (at least 70%) or total protection,[1],at least 70%
same,good (at least 70%) or total protection,[2],at least 70%
same,good (at least 70%) or total protection,[3],at least 70%
Cc1nn(C)c(F)c1C(=O)N(C1CC1)C(C)c1cc(Cl)cc(Cl)c1 (stereo not shown) [Compound 414],good (at least 70%) or total protection,[1],at least 70%
same,good (at least 70%) or total protection,[2],at least 70%
Cc1nn(C)c(F)c1C(=O)N(C1CC1)C(C)c1ccc(C(F)(F)F)cc1 (stereo not shown) [Compound 355],good (at least 70%) or total protection,[1],at least 70%
same,good (at least 70%) or total protection,[2],at least 70%
same,good (at least 70%) or total protection,[3],at least 70%
Cc1nc(C(F)F)c(C(=O)N(Cc2c(Cl)cc(Cl)cc2Cl)C2CC2)s1 [Compound 171],good (at least 70%) or total protection,[2],at least 70%
same,good (at least 70%) or total protection,[3],at least 70%
Cc1nn(C)c(F)c1C(=O)N(Cc1ccc(C(F)(F)F)cc1Cl)C1CC1 [Compound 235],good (at least 70%) or total protection,[1],at least 70%
same,good (at least 70%) or total protection,[2],at least 70%
same,good (at least 70%) or total protection,[3],at least 70%
Cn1cc(C(=O)N(Cc2ccc(Cl)cc2Cl)C2CC2)c(C(F)F)n1 [Compound 241],good (at least 70%) or total protection,[2],at least 70%
same,good (at least 70%) or total protection,[3],at least 70%
COc1ccc(OC)c(CN(C(=O)c2c(C)nn(C)c2F)C2CC2)c1 [Compound 307],good (at least 70%) or total protection,[1],at least 70%
same,good (at least 70%) or total protection,[2],at least 70%
CCCCC(c1ccc(C(F)(F)F)cc1)N(C(=O)c1c(C)nn(C)c1F)C1CC1 (stereo not shown) [Compound 424],good (at least 70%) or total protection,[1],at least 70%
same,good (at least 70%) or total protection,[2],at least 70%
same,good (at least 70%) or total protection,[3],at least 70%
Cc1nn(C)c(F)c1C(=O)N(Cc1ccc(Oc2ccc(Cl)cc2Cl)cc1)C1CC1 [Compound 358],good (at least 70%) or total protection,[1],at least 70%
same,good (at least 70%) or total protection,[2],at least 70%
same,good (at least 70%) or total protection,[3],at least 70%
Cn1cc(C(=O)N(Cc2ccc(C(F)(F)F)cc2Cl)C2CC2)c(C(F)(F)F)c1 [Compound 97],good (at least 70%) or total protection,[1],at least 70%
same,good (at least 70%) or total protection,[2],at least 70%
same,good (at least 70%) or total protection,[3],at least 70%
Cc1ccc(CN(C(=O)c2c(C)nn(C)c2F)C2CC2)cc1C [Compound 286],good (at least 70%) or total protection,[2],at least 70%
same,good (at least 70%) or total protection,[3],at least 70%
Cc1nn(C)c(F)c1C(=O)N(Cc1cc2c(cc1Cl)OCO2)C1CC1 [Compound 313],good (at least 70%) or total protection,[1],at least 70%
same,good (at least 70%) or total protection,[2],at least 70%
same,good (at least 70%) or total protection,[3],at least 70%
Cc1cc(C(=O)N(C2CC2)C(C)c2ccc(Cl)cc2Cl)c(C)o1 (stereo not shown) [Compound 41],good (at least 70%) or total protection,[2],at least 70%
same,good (at least 70%) or total protection,[3],at least 70%
CC(c1ccc(C(F)(F)F)cc1)N(C(=O)c1cn(C)cc1C(F)(F)F)C1CC1 (racemic) [Compound 117],good (at least 70%) or total protection,[1],at least 70%
same,good (at least 70%) or total protection,[2],at least 70%
same,good (at least 70%) or total protection,[3],at least 70%
O=C(c1ccsc1I)N(Cc1c(Cl)cccc1Cl)C1CC1 [Compound 65],good (at least 70%) or total protection,[2],at least 70%
same,good (at least 70%) or total protection,[3],at least 70%
COc1ccccc1C(C#N)N(C(=O)c1c(C)nn(C)c1F)C1CC1 (stereo not shown) [Compound 404],good (at least 70%) or total protection,[1],at least 70%
same,good (at least 70%) or total protection,[2],at least 70%
same,good (at least 70%) or total protection,[3],at least 70%
Cn1cc(C(=O)N(Cc2ccc(C(F)(F)F)cc2)C2CC2)c(C(F)F)n1 [Compound 242],good (at least 70%) or total protection,[2],at least 70%
same,good (at least 70%) or total protection,[3],at least 70%
Cc1cc(C)c(CN(C(=O)c2cn(C)cc2C(F)(F)F)C2CC2)c(C)c1 [Compound 110],good (at least 70%) or total protection,[2],at least 70%
same,good (at least 70%) or total protection,[3],at least 70%
Cn1cc(C(=O)N(Cc2ccc(C(F)(F)F)cc2Cl)C2CC2)c(C(F)(F)F)n1 [Compound 248],good (at least 70%) or total protection,[1],at least 70%
same,good (at least 70%) or total protection,[2],at least 70%
same,good (at least 70%) or total protection,[3],at least 70%
Cn1cc(C(=O)N(Cc2ccc(Cl)c(Cl)c2Cl)C2CC2)c(C(F)(F)F)c1 [Compound 128],good (at least 70%) or total protection,[1],at least 70%
same,good (at least 70%) or total protection,[2],at least 70%
same,good (at least 70%) or total protection,[3],at least 70%
Cc1nc(C(F)F)c(C(=O)N(Cc2ccc(C(F)(F)F)cc2)C2CC2)s1 [Compound 172],good (at least 70%) or total protection,[1],at least 70%
same,good (at least 70%) or total protection,[2],at least 70%
Cn1cc(C(=O)N(Cc2ccc(Cl)c(Cl)c2Cl)C2CC2)c(C(F)(F)F)n1 [Compound 473],good (at least 70%) or total protection,[2],at least 70%
same,good (at least 70%) or total protection,[3],at least 70%
Cn1cc(C(=O)N(Cc2ccc(C(F)(F)F)cc2)C2CC2)c(I)n1 [Compound 262],good (at least 70%) or total protection,[2],at least 70%
Cc1nn(C)c(F)c1C(=O)N(C1CC1)C(C)c1ccccc1C(F)(F)F (stereo not shown) [Compound 379],good (at least 70%) or total protection,[1],at least 70%
same,good (at least 70%) or total protection,[2],at least 70%
same,good (at least 70%) or total protection,[3],at least 70%
Cc1nn(C)c(F)c1C(=O)N(Cc1ccc(Oc2ccccc2)cc1)C1CC1 [Compound 239],good (at least 70%) or total protection,[2],at least 70%
same,good (at least 70%) or total protection,[3],at least 70%
Cc1cc(C(=O)N(Cc2ccc(C(F)(F)F)cc2)C2CC2)c(C(F)(F)F)o1 [Compound 16],good (at least 70%) or total protection,[2],at least 70%
same,good (at least 70%) or total protection,[3],at least 70%
COc1nn(C)cc1C(=O)N(Cc1ccc(Cl)c(Cl)c1Cl)C1CC1 [Compound 443],good (at least 70%) or total protection,[1],at least 70%
same,good (at least 70%) or total protection,[2],at least 70%
same,good (at least 70%) or total protection,[3],at least 70%
O=C(c1ccsc1I)N(Cc1c(Cl)cc(C(F)(F)F)cc1Cl)C1CC1 [Compound 87],good (at least 70%) or total protection,[1],at least 70%
same,good (at least 70%) or total protection,[2],at least 70%
same,good (at least 70%) or total protection,[3],at least 70%
CC(c1ccc(Cl)cc1Cl)N(C(=O)c1cn(C)nc1C(F)(F)F)C1CC1 (stereo not shown) [Compound 276],good (at least 70%) or total protection,[1],at least 70%
same,good (at least 70%) or total protection,[2],at least 70%
same,good (at least 70%) or total protection,[3],at least 70%
COc1ccccc1CN(C(=O)c1c(C)nn(C)c1F)C1CC1 [Compound 298],good (at least 70%) or total protection,[1],at least 70%
same,good (at least 70%) or total protection,[2],at least 70%
same,good (at least 70%) or total protection,[3],at least 70%
Cc1nn(C)c(F)c1C(=O)N(Cc1ccc(Cl)cc1Cl)C1CC1 [Compound 236],good (at least 70%) or total protection,[2],at least 70%
same,good (at least 70%) or total protection,[3],at least 70%
O=C(c1ccsc1I)N(Cc1c(Cl)cc(Cl)cc1Cl)C1CC1 [Compound 88],good (at least 70%) or total protection,[2],at least 70%
same,good (at least 70%) or total protection,[3],at least 70%
Cc1nc(C(F)F)c(C(=O)N(Cc2ccc(Oc3ccc(Cl)cc3Cl)cc2)C2CC2)s1 [Compound 196],good (at least 70%) or total protection,[2],at least 70%
same,good (at least 70%) or total protection,[3],at least 70%
Cc1nc(C(F)(F)F)c(C(=O)N(Cc2ccc(Cl)cc2Cl)C2CC2)s1 [Compound 168],good (at least 70%) or total protection,[1],at least 70%
same,good (at least 70%) or total protection,[2],at least 70%
"Cc1nn(C)c(F)c1C(=O)N(Cc1ccc(C(F)(F)F)cc1)C1CC1 [Compound 237, N-(4-trifluoromethyl-benzyl)-N-cyclopropyl-5-fluoro-1,3-dimethyl-1H-pyrazole-4-carboxamide]",good (at least 70%) or total protection,[2],at least 70%
same,good (at least 70%) or total protection,[3],at least 70%
Cc1cc(C)c(CN(C(=O)c2ccsc2I)C2CC2)c(C)c1 [Compound 77],good (at least 70%) or total protection,[2],at least 70%
same,good (at least 70%) or total protection,[3],at least 70%
Cc1cccc(CN(C(=O)c2sc(C)nc2C(F)F)C2CC2)c1 [Compound 181],good (at least 70%) or total protection,[2],at least 70%
Cc1cc(C(=O)N(C2CC2)C(C)c2ccc(C(F)(F)F)cc2)c(C)o1 (stereo not shown) [Compound 51],good (at least 70%) or total protection,[2],at least 70%
